Some of the results follow.

For this test, the target named is T1, OsSMF1 (Oryza sativa, UniProt Q6ZLB0 1-436).
T1 sequence: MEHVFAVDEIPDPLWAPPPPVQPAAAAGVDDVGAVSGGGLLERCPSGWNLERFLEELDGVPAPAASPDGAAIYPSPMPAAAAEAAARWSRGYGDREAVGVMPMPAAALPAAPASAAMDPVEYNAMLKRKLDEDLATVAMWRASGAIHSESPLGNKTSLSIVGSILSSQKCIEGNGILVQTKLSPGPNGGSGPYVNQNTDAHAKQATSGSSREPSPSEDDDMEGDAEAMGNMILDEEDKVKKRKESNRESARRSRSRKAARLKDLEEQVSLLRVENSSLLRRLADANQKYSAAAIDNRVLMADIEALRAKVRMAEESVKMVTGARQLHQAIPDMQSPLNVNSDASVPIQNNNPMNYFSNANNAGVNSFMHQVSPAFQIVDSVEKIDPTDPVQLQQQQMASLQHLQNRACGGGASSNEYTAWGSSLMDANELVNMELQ
Nature of the test: protein-binding microarray (RPBM); PBS, 2% BSA, 51.3 ng/ul salmon testes DNA, 50 uM zinc acetate, 200 nM TF, 25 C, 1 h; high values mean tight binding. Conditions: protein: recombinant; tags: N-terminal polyhistidine and DsRed monomer fusion (pET32a); chain copies: 2; label: CyDye5-dUTP incorporated in the synthesized complementary strand; 3' TTTTT single-stranded linker to array surface; dsDNA, one strand shown. In a few lines: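 Transcription factors were each fused at the N-terminus to a polyhistidine tag plus DsRed and expressed in E. coli BL21-CodonPlus before Ni–NTA purification. Binding to a double-stranded custom Agilent array was carried out with 200 nM protein at 25 °C for 1 h in PBS, 2% BSA, salmon testes DNA and 50 µM zinc acetate. The binding signal is per-feature fluorescence intensity, in arbitrary units, on an Axon 4000B scanner.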
Consider “AATTTGTGCATATGTGAGCGTGGTGTGATGTGTCGTGGGTCGGAGTCACCTAGTGCAG”, for which the binding signal was 6090 fluorescence intensity (a.u.).

“GTGATGTCTTATTGACATGACATCATAGACACTACTTATACGGAGTCACCTAGTGCAG”: the binding signal was 3960 fluorescence intensity (a.u.).

On to “GGTCGCCGGATCGCGGGAGGGAGGGAGGGAGGGAGGGAGGCGGAGTCACCTAGTGCAG”, for which the binding signal was 5460 fluorescence intensity (a.u.).

As to “CTCTCCTCTCCTCTTGGTGATGACTGATCGATGACCACCACGGAGTCACCTAGTGCAG”, the binding signal was 4680 fluorescence intensity (a.u.).

As for “CTGCAGTACAACAAACATGATAGTACTTGAAATCATCTTGCGGAGTCACCTAGTGCAG”, the binding signal was 27400 fluorescence intensity (a.u.).

“CGAAGGAGGCGTGGGACTCGGTGAAGAAGATGCGAGCCGGCGGAGTCACCTAGTGCAG”: the binding signal is 4950 fluorescence intensity (a.u.).

For the sequence “TCCTTGCACTGTTGCTGCTGCTGATGCTTCACGTCGTCCGCGGAGTCACCTAGTGCAG”, the binding signal is 3310 fluorescence intensity (a.u.).

For the sequence “GCCTTGGCGCTGACGCTGAGAGCCCCGAGCCGTAACAAACCGGAGTCACCTAGTGCAG”, the binding signal is 3340 fluorescence intensity (a.u.).

Turning to “GGGGATCCTGGTGAGCATCCACATCCTCTTTCTGATTCATCGGAGTCACCTAGTGCAG”, the binding signal is 4650 fluorescence intensity (a.u.).

For “CGGCTGCTGGCTATATTATGTCCACATCATTTTACAGCTACGGAGTCACCTAGTGCAG”, the binding signal was 6030 fluorescence intensity (a.u.).

Take “CTCGGATCGACCAAGCTGCTCCGCATCTGTATGACGATGACGGAGTCACCTAGTGCAG”: the binding signal is 3900 fluorescence intensity (a.u.).

Take “AATGTATGAACAAGTGAAACAAAACATATCCATGAGTCGACGGAGTCACCTAGTGCAG”: the binding signal was 4200 fluorescence intensity (a.u.).

As for “GCCCTCGCCTCTGACCAGCGGGCCCCACACGTCAGCCAGACGGAGTCACCTAGTGCAG”, the binding signal was 9920 fluorescence intensity (a.u.).

As for “GGCCCAACTAGGCCCACCCTTCCGACACGTGTCCCTCCCCCGGAGTCACCTAGTGCAG”, the binding signal was 14500 fluorescence intensity (a.u.).

As to “GCTATTTATTAAGAATATATAGGACTCTAGCTACCAGATACGGAGTCACCTAGTGCAG”, the binding signal is 35100 fluorescence intensity (a.u.).

On to “TTTATTTGATGATTGGTATTCTATGGTTACTTTCCCAGGGCGGAGTCACCTAGTGCAG”, for which the binding signal was 3430 fluorescence intensity (a.u.).

Consider “GCAAGCGAAATTTCAAAGCCATGTCAGCCAGTGAATAAATCGGAGTCACCTAGTGCAG”, for which the binding signal was 5170 fluorescence intensity (a.u.).

On to “ATGTCAATTTCCATAGCGTTAGCATGTGACGTCAAATCGCCGGAGTCACCTAGTGCAG”, for which the binding signal is 5660 fluorescence intensity (a.u.).

With “CTAGGACTCTGTCCACAGGTTCCACGTTCCTGATATGGTTCGGAGTCACCTAGTGCAG”, the binding signal is 4860 fluorescence intensity (a.u.).

As for “TAGTGTGACATCGATAGCAATGCGAGGCCACGTACCAACCCGGAGTCACCTAGTGCAG”, the binding signal was 4210 fluorescence intensity (a.u.).

On to “GTGGTCCGGTGGTGGGGTGATGGGGCGTGGCGGTTCTGTCCGGAGTCACCTAGTGCAG”, for which the binding signal is 5300 fluorescence intensity (a.u.).

Turning to “TAGAGTGATATATTACATATCAATTTATCTTGTTAATTTTCGGAGTCACCTAGTGCAG”, the binding signal was 3340 fluorescence intensity (a.u.).

With “ATGATAAATGGATTACTTACATGACGTTTGCCTATCGATCCGGAGTCACCTAGTGCAG”, the binding signal is 5440 fluorescence intensity (a.u.).

For the sequence “GCATGACGGATGGACGCGCCGCCTCGTTGGAATCCGGTCTCGGAGTCACCTAGTGCAG”, the binding signal is 3370 fluorescence intensity (a.u.).

Consider “CTGAAGTCTCTGAATCTGACACTCACGCTGACCAGATTAACGGAGTCACCTAGTGCAG”, for which the binding signal is 3740 fluorescence intensity (a.u.).

With “AATCCTCCGTATATTTCACCAAGCCCTAACACGGACAAAACGGAGTCACCTAGTGCAG”, the binding signal is 3300 fluorescence intensity (a.u.).

As for “CGTATACCTCGGAGAAGTTCTCATCCGCTGACGTGTCCCGCGGAGTCACCTAGTGCAG”, the binding signal is 23000 fluorescence intensity (a.u.).

As to “GGCCCACATATCAGTGACTCAACTACACAGCAGTTAAGTCCGGAGTCACCTAGTGCAG”, the binding signal is 4050 fluorescence intensity (a.u.).

As for “CATGTGTACATTGATACTACTGCCATGACGTCGTGTGCAACGGAGTCACCTAGTGCAG”, the binding signal is 3480 fluorescence intensity (a.u.).

With “TTTTAACGGAGGGAAGAGAGTACGTGTGACGTGGGTGCACCGGAGTCACCTAGTGCAG”, the binding signal was 10200 fluorescence intensity (a.u.).

As to “ATGTGTGTGTGTGTGTGTGTCGCTGTACTGCCTTCCGTCTCGGAGTCACCTAGTGCAG”, the binding signal is 3890 fluorescence intensity (a.u.).

With “TTTCTATGCAGATCACAAGATTATGACTATGCTAGCGCTACGGAGTCACCTAGTGCAG”, the binding signal is 3200 fluorescence intensity (a.u.).

With “CAACCACATCACAGCACTGATCCCTGCGTGTGAAGCGAAGCGGAGTCACCTAGTGCAG”, the binding signal was 3270 fluorescence intensity (a.u.).

On to “ACCTCTAGTATATAGCTGACACGATGACTACTCTGCTTCTCGGAGTCACCTAGTGCAG”, for which the binding signal was 8080 fluorescence intensity (a.u.).

For the sequence “CCTTTGCTACTTACATCACTGGGTTGAAACTTGATTCCCACGGAGTCACCTAGTGCAG”, the binding signal is 3180 fluorescence intensity (a.u.).

As to “AGTTTATCAAAGCTGCACATCTATCTGATGATGACACTTCCGGAGTCACCTAGTGCAG”, the binding signal is 4160 fluorescence intensity (a.u.).

With “TTTAGCATTGCCACATAATCAATCAGACGCACTTGAAAGTCGGAGTCACCTAGTGCAG”, the binding signal is 3740 fluorescence intensity (a.u.).

Consider “GTGAGGGTTTGGGCCCGTCACAGGTGACCTTGACCAGTGTCGGAGTCACCTAGTGCAG”, for which the binding signal was 3190 fluorescence intensity (a.u.).

As for “GGCAGAAGTATAATTTCACAAATCAAAGGACAGAGTGACTCGGAGTCACCTAGTGCAG”, the binding signal is 3820 fluorescence intensity (a.u.).

With “TTTCAATTATTTAGGTATTAACATTAACTACTTTACTAACCGGAGTCACCTAGTGCAG”, the binding signal was 14800 fluorescence intensity (a.u.).

Regarding “AAGTCATACGTGGTTCCTATATGAGTCGTGTCGTGTGTACCGGAGTCACCTAGTGCAG”, the binding signal is 7450 fluorescence intensity (a.u.).

For the sequence “TGCGGACTACGTCAAGCTGACGTCATCTCCGACCCGACCTCGGAGTCACCTAGTGCAG”, the binding signal was 54000 fluorescence intensity (a.u.).

Values taken from publication PMC7819943, “Rice protein-binding microarrays: a tool to detect cis-acting elements near promoter regions in rice”.
